{
  "source": "paper doi:10.1101/2024.11.11.622897",
  "key": {"[1]": {"system": "DdaA (A. radioresistens) (Acinetobacter radioresistens ATCC 43998)", "experiment": "EMSA", "conditions": "protein in 150 mM NaCl, 20 mM Tris-HCl pH 7.5"}, "[2]": {"system": "DdaA homolog Pa (Psychrobacter aquimaris KCTC 12254)", "experiment": "EMSA", "conditions": "protein in 150 mM NaCl, 20 mM Tris-HCl pH 7.5"}, "[3]": {"system": "DdaA homolog Gs (Geoalkalibacter subterraneus Red1)", "experiment": "EMSA", "conditions": "protein in 150 mM NaCl, 20 mM Tris-HCl pH 7.5"}, "[4]": {"system": "DdaA homolog Ca (Chrysiogenes arsenatis DSM 11915)", "experiment": "EMSA", "conditions": "protein in 150 mM NaCl, 20 mM Tris-HCl pH 7.5"}, "[5]": {"system": "DdaA native from lysate (Acinetobacter radioresistens ATCC 43998)", "experiment": "pull-down + MS", "conditions": "cell lysate; protein in an extract"}},
  "note": "Construct, isoform or probe ends are uncertain for at least one entry. For part of these data: Weaker means in comparison with the reference protein, sequence or condition of that experiment. For part of these data: At least one verdict was read from the data and is not stated in words by the source. For part of these data: At least one result comes from cells or an extract, where the contact may be indirect.",
  "data": [
    {"sequence": "TTTCCGGTCTGGGCAACACAATATGACGTGTAATTTTAACC (double strand) [recA promoter M2]", "values": [
      {"measurement": "binding result", "setting": "[1]; drastically impaired", "value": "binds more weakly"}
    ]},
    {"sequence": "TTTCCGGTCTGGGCGACCCAATATGACGTGTAATTTTAACC (double strand) [recA promoter M4]", "values": [
      {"measurement": "binding result", "setting": "[1]; weak shifted band retained", "value": "binds more weakly"}
    ]},
    {"sequence": "TTTCCGGTCTGGGCGAGACAATATGACGTGTAATTTTAACC (double strand) [recA promoter M3]", "values": [
      {"measurement": "binding result", "setting": "[1]; drastically impaired", "value": "binds more weakly"},
      {"measurement": "binding result", "setting": "[2]; weakened or lost", "value": "binds more weakly"},
      {"measurement": "binding result", "setting": "[3]; weakened or lost", "value": "binds more weakly"},
      {"measurement": "binding result", "setting": "[4]; weakened or lost", "value": "binds more weakly"}
    ]},
    {"sequence": "TTTCCGGTCTGGGGGACACAATATGACGTGTAATTTTAACC (double strand) [recA promoter M1]", "values": [
      {"measurement": "binding result", "setting": "[1]; drastically impaired", "value": "binds more weakly"}
    ]},
    {"sequence": "ATGACGTTTCATATGTGTTTTCCGGTCTGGGCGACACAATATGACGTGTAATTTTAACC (double strand) [recA promoter pull-down dsDNA]", "values": [
      {"measurement": "binding result", "setting": "[5]", "value": "binds"}
    ]},
    {"sequence": "TTTCCGGTCTGGGCGACACAATATGACGTGTAATTTTAACC (double strand) [recA promoter motif WT (AR-DDRM)]", "values": [
      {"measurement": "binding result", "setting": "[1]", "value": "binds"},
      {"measurement": "binding result", "setting": "[2]", "value": "binds"},
      {"measurement": "binding result", "setting": "[3]", "value": "binds"},
      {"measurement": "binding result", "setting": "[4]", "value": "binds"}
    ]}
  ]
}
